From publication PMC9646841, “A bead-based GPCR phosphorylation immunoassay for high-throughput ligand profiling and GRK inhibitor screening” (Communications Biology, 2022)

System: MOP (GIRK2 channel activation)
Assay: GIRK channel membrane potential assay (G protein signaling)
Type: cell-based
Conditions: Mus musculus
Procedure: To analyze Gi signaling, changes in membrane potential produced by activation of G protein-gated inwardly rectifying potassium channel (GIRK) were measured as previously described[50],[51]. HEK293 cells were stably transfected with HA-MOP and GFP-conjugated GIRK2 channel plasmids (OriGene). The cells were then seeded in 96-well plates and allowed to grow at 37 °C in 5% CO2 for 48 h. Hank’s balanced salt solution (HBSS) with 20 mM HEPES solution (1.3 mM CaCl2, 5.4 mM KCl, 0.4 mM K2HPO4, 0.5 mM MgCl2, 0.4 mM MgSO4, 136.9 mM NaCl, 0.3 mM Na2HPO4, 4.2 mM NaHCO3 and 5.5 mM glucose; pH 7.4) was used to wash the cells. A membrane potential dye (FLIPR Membrane Potential kit BLUE, Molecular Devices R8034) was reconstituted according to the manufacturer’s instructions. To each well, 90 μl of the HBSS/HEPES buffer solution and an equal volume of the membrane potential dye were added to a final volume of 180 μl per well. […] Test compounds were prepared in buffer solution containing HBSS and 20 mM HEPES solution (pH 7.4) at tenfold the final concentration to be measured. […] Baseline readings were taken every 1.8 s for 1 min. […] The change in dye fluorescence was recorded for 240 s with SoftMax Pro 5.4 software. Peak fluorescence values were obtained after subtraction of baseline readings for each sample and then used to calculate concentration–response curves using Origin.

SMILES: CN1CC[C@]23c4c5ccc(O)c4O[C@H]2[C@@H](O)C=C[C@H]3[C@H]1C5 [Morphine, morphine]
- EC50: 5.01 nM
